Chains of the proteins cited; added tags and fusions are not shown. Lines headed by an entry give the natural chain unless they say otherwise; changes in a name come on top.
UniProt P18054: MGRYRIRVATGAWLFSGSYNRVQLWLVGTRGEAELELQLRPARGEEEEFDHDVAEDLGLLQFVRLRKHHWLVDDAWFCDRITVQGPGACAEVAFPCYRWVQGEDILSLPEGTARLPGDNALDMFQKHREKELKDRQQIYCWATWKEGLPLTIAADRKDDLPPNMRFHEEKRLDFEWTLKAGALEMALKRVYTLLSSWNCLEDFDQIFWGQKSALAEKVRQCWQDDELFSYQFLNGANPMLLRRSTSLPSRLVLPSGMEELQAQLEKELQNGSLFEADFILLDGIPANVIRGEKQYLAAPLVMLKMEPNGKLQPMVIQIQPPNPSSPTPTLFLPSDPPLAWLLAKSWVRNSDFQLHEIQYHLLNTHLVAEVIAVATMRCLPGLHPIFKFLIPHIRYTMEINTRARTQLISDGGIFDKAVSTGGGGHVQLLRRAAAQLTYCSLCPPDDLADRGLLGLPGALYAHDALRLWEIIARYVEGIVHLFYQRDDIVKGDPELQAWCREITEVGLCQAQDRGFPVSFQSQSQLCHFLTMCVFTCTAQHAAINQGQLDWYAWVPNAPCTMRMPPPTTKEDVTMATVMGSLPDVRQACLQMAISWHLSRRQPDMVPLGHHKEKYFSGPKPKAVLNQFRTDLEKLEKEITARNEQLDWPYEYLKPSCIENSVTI

Values joined by “and” are separate entries in the source; they are usually repeats but may differ in a detail not shown here. Equal values may be shown once. Hit rate of the full screen: of about 580,000 compounds, about 6,100 (1.1%) were called active. Inconclusive means that the source gave no clear call. Such entries were picked first, then a sample of the others. Calls follow the shape of the dose curve; as a rule, active = well fitted inhibition curve with a large enough effect; inconclusive = small, poorly fitted or top-dose-only effect, or another doubt; inactive = no such curve, though single readings can be large or run the other way. Potencies of inconclusive entries are doubtful fits and often do not repeat.
The molecules below were run against Polyunsaturated fatty acid lipoxygenase ALOX12 (Homo sapiens) (UniProt P18054) (assay: Primary qHTS assay for inhibitors of human arachidonate 12S-lipoxygenase (ALOX12): Round 2). Conditions: purified 12hLO, xylenol orange hydroperoxide absorbance; activity change, negative = inhibition: at 108 µM (top of the series) unless noted.
Procedure, shortened: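 Purified human 12hLO (150 nM final) in 25 mM Hepes, 0.01% Triton X-100, pH 7.0 was preincubated 15 min at room temperature with compound. Then 40 uM arachidonic acid was added, 30 min. Hydroperoxide was read by Fe-XO absorbance ratio 573/405 nm.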
For `O=C(Nc1ccc(Cl)cc1)c1cc(S(=O)(=O)N2CCc3ccccc32)ccc1F`, the Potency was inconclusive: 100 µM [inhibitor, partial curve, poor fit]. With `CC(C)n1c(=O)n(CCCO)c(=O)c2c3c(sc21)COC(C)(C)C3` the “activity change, negative = inhibition” value was inactive: -4.92%. For `O=C(NC1CCCC1)C1C2C=CC(C2)C1C(=O)N1CCOCC1` (stereo unspecified), the Potency was inconclusive: 44.7 µM [inhibitor, partial curve, poor fit]. In the case of `c1ccc2c(CN3CCCCC3)csc2c1`, the activity change, negative = inhibition is reported as inconclusive: -33.6% [inhibitor]. For `CCOC(=O)C1CC(c2ccccc2)=NN1c1ccccc1` (stereo unspecified), the Potency was inconclusive: 50.1 µM [inhibitor, partial curve, poor fit]. For `Cc1ccc(S(=O)(=O)Nc2nc3n(n2)C(c2ccccc2Cl)C=C(c2ccccc2)N3)cc1` (stereo unspecified), the Potency was inconclusive: 56.2 µM [inhibitor, partial curve, poor fit]. For `COc1ccccc1N1CCN(C[C@@H](C(=O)NC(C)(C)C)c2ccccc2)CC1`, the Potency was inconclusive: 28.2 µM [inhibitor, partial curve, poor fit]. In the case of `O=C(O)c1ccc(CNCc2ccccc2F)cc1`, the Potency is reported as inconclusive: 28.2 µM [inhibitor, partial curve, poor fit]. With `CCCCc1c(-c2ccccc2OC)ncn1Cc1c(Cl)cccc1Cl` the Potency was inconclusive: 44.7 µM [inhibitor, partial curve, poor fit]. For `C=CCNC(=S)NC(C)c1ccccc1` (stereo unspecified), the “activity change, negative = inhibition” value was inactive: -14.1%. With `O=C(Nc1cccc2cccnc12)c1ccccc1Cl` the Potency was inconclusive: 100 µM [inhibitor, partial curve, poor fit] and inconclusive: 22.4 µM [inhibitor, full curve, poor fit]. In the case of `O=C(NNC(=S)Nc1ccc(Cl)cc1Cl)c1ccc(N2CCOCC2)c([N+](=O)[O-])c1`, the Potency is reported as inconclusive: 50.1 µM [inhibitor, partial curve, poor fit]. With `Cc1cc2ccccc2n2c(SCC(=O)N3CCc4ccccc4C3)nnc12` the Potency was inconclusive: 56.2 µM [inhibitor, partial curve, poor fit]. In the case of `Cn1cc(CNC(=O)C[C@@H]2C[C@H]3O[C@H](CNCc4ccccc4OC(F)(F)F)[C@@H](O)[C@H]3O2)cn1`, the “activity change, negative = inhibition” value is reported as inactive: 26.8%. With `Cc1ccccc1OCC(=O)NC(Cc1c[nH]c2ccccc12)C(=O)O` (stereo unspecified) the Potency was inconclusive: 50.1 µM [inhibitor, partial curve, poor fit]. For `CCOCCCNC(=O)C(NC(=O)c1cnccn1)c1ccc(OC)cc1` (stereo unspecified), the Potency was inconclusive: 5.62 µM [inhibitor, full curve, poor fit]. `N#C/C(=C\c1cc(Cl)cc(Cl)c1)c1cccnc1` was tested, and the Potency was “inactive”. `CC(C)C(C)NC(=O)COc1ncnc2sccc12` (stereo unspecified) was tested, and the Potency was inconclusive: 35.5 µM [inhibitor, single point]. With `CCCN1CCC(NC(=O)c2csc(C)c2CC)CC1` the “activity change, negative = inhibition” value was inactive: -11.8%. With `O=C1/C(=C/c2cccs2)SC(=S)N1c1cccc(O)c1` the Potency was inconclusive: 50.1 µM [inhibitor, partial curve, poor fit]. With `O=C1c2cccc3cc([N+](=O)[O-])cc(c23)C(=O)N1c1ccccc1O` the “activity change, negative = inhibition” value was inactive: -50.1%. With `Cc1oc(-c2ccc(Cl)cc2)nc1CS(=O)CC(=O)NCCN1CCOCC1` (stereo unspecified) the Potency was inconclusive: 89.1 µM [inhibitor, single point]. In the case of `CCOC(=O)C1CCN(S(=O)(=O)c2ccc(-c3nc4ccccc4s3)s2)CC1`, the Potency is reported as inconclusive: 15.8 µM [inhibitor, partial curve, poor fit]. For `CC1(C(=O)Nc2cccc3cccnc23)CCN1C(=O)Cc1ccc(Cl)cc1Cl` (stereo unspecified), the activity change, negative = inhibition was inconclusive: -39.3% [inhibitor]. With `CCCn1nnc(NC(=O)C(C)C)n1` the Potency was inconclusive: 126 µM [inhibitor, single point]. For `Cc1cc(C(=O)NCC(=O)Nc2ccc(F)c(F)c2)c(C)o1`, the Potency was inconclusive: 79.4 µM [inhibitor, partial curve, poor fit]. In the case of `O=C(NCC1CC1)c1cccc(OC2CN(Cc3cccc(F)c3F)C2)c1`, the Potency is reported as inconclusive: 3.55 µM [inhibitor, full curve, poor fit]. In the case of `Cc1ccc(/C=C2/SC(=S)N(CCCC(=O)Nc3ccc(O)cc3)C2=O)cc1`, the Potency is reported as inconclusive: 50.1 µM [inhibitor, partial curve, poor fit]. With `CCOc1ccc(NS(=O)(=O)c2cc(OC)ccc2OC)cc1` the “activity change, negative = inhibition” value was inactive: 4.47% [at 57.4 µM]. For `Cc1cccc(NC(=O)c2oc3ccccc3c2NC(=O)c2cc(=O)c3cc(Cl)ccc3o2)c1`, the activity change, negative = inhibition was inconclusive: -30.2% [inhibitor]. In the case of `Cc1ccc2c(C)nc(NC3=NC(C(=O)Nc4ccc(Br)cc4)CC(=O)N3)nc2c1` (stereo unspecified), the Potency is reported as inconclusive: 50.1 µM [inhibitor, partial curve, poor fit]. In the case of `COC(=O)c1ccc2nc(C[C@@H]3C[C@@H](C(C)C)[C@H](CNCc4ccccc4F)C=C3C)[nH]c2c1`, the Potency is reported as inconclusive: 79.4 µM [inhibitor, single point]. For `CCN(C)C1CN(Cc2cn(Cc3ccc(OC)cc3)nn2)S(=O)(=O)C1` (stereo unspecified), the Potency was inconclusive: 15.8 µM [inhibitor, full curve, poor fit]. In the case of `Cc1ccc(C(=O)OCC(=O)N2CCc3ccccc32)cc1S(=O)(=O)N1CCCCC1`, the “activity change, negative = inhibition” value is reported as inactive: 3.09%. For `O=C(O)CNS(=O)(=O)c1ccccc1Br`, the “activity change, negative = inhibition” value was inactive: -30.8%. In the case of `CC(NC(=O)c1cc(COc2ccc(-n3cncn3)cc2)on1)c1ccc(F)cc1` (stereo unspecified), the “activity change, negative = inhibition” value is reported as inactive: 10.3%. `COc1ccc(CNC(=O)C2CCCN2)cc1OC` (stereo unspecified) was tested, and the Potency was inconclusive: 0.891 µM [inhibitor, full curve]. `COc1ccc(C)cc1NC(=O)CSc1ccc(-c2ccccn2)nn1` was tested, and the Potency was “inactive”. For `O=C(/C=C/c1ccco1)Nc1ccc(N2CCCC2)cc1`, the Potency was inconclusive: 50.1 µM [inhibitor, partial curve, poor fit]. `O=C(CCSc1ccccc1)NCc1cccnc1` was tested, and the Potency was inconclusive: 7.08 µM [inhibitor, full curve, poor fit]. `COC(=O)N1C(=O)[C@](CC(C)C)(c2ccccc2)N1C(=O)OC` was tested, and the “activity change, negative = inhibition” value was inactive: -22.2%. In the case of `CN1CCC2(CC1)Oc1ccccc1C1CC(c3ccc(Cl)c(Cl)c3)=NN12` (stereo unspecified), the Potency is reported as inconclusive: 28.2 µM [inhibitor, partial curve, poor fit]. With `COc1ccc(CCN(C)CC(=O)Nc2c(C)cc(C)cc2C)cc1OC` the Potency was inconclusive: 39.8 µM [inhibitor, partial curve, poor fit]. With `CCn1cnc2c1c(=O)n(CC(=O)OC(C)C(N)=O)c(=O)n2Cc1ccccc1` (stereo unspecified) the Potency was inconclusive: 63.1 µM [inhibitor, partial curve, poor fit]. For `c1ccc2c(c1)nc(N1CCCCC1)c1ccccc12`, the Potency was inconclusive: 7.08 µM [inhibitor, full curve, poor fit]. `Cc1ccc2nc(-c3ccco3)c(CC(C)(C)C)n2c1` was tested, and the Potency was inconclusive: 50.1 µM [inhibitor, partial curve, poor fit]. For `O=C1CCN(S(=O)(=O)c2ccccc2)CCCN(C(=O)C2CCCCC2)CCN1`, the Potency was inconclusive: 79.4 µM [inhibitor, partial curve]. For `CCCNC(=O)C(NC(=O)c1ccc(OC)cc1)C1CCN(C(=O)c2ccccc2C)CC1` (stereo unspecified), the “activity change, negative = inhibition” value was inactive: 33%. With `COc1cc(C2C3=C(COC3=O)OC(C)(C)Oc3cc4c(cc32)OCO4)cc(OC)c1OC` (stereo unspecified) the Potency was inconclusive: 4.47 µM [inhibitor, full curve, poor fit]. `c1csc(-c2cnc3n2CCCC3)c1` was tested, and the Potency was inconclusive: 50.1 µM [inhibitor, partial curve, poor fit]. In the case of `CN(C)S(=O)(=O)N1CCC(Oc2ccc(C(=O)N3CCCCCC3)cc2)CC1`, the “activity change, negative = inhibition” value is reported as inactive: -11.6%. For `COc1ccc(CNC(=O)CSc2ccc(Br)cc2)cc1OC`, the “activity change, negative = inhibition” value was inactive: 5.04%. For `Cc1ccc(-c2nc3ccc(Cl)cn3c2Cc2ccsc2)cc1`, the Potency was inconclusive: 35.5 µM [inhibitor, single point]. In the case of `OCc1ccc(O)c2ncccc12`, the Potency is reported as inconclusive: 31.6 µM [inhibitor, partial curve, poor fit]. In the case of `CCn1c(SCC(=O)c2ccc(Br)s2)nnc1-c1ccc(OC)cc1`, the Potency is reported as inconclusive: 44.7 µM [inhibitor, partial curve, poor fit]. In the case of `N#CCSc1ccc(-c2nc3ccccc3[nH]2)cn1`, the “activity change, negative = inhibition” value is reported as inactive: -1.32%. `O=C(O)C[C@@H]1CCN(C(=O)C(=O)O)C[C@@H]1CC1=NCCc2cc(F)ccc21` was tested, and the Potency was inconclusive: 5.62 µM [inhibitor, full curve, poor fit]. For `Cc1cc(NC(=O)COc2ccc3ccccc3c2Br)no1`, the Potency was inconclusive: 112 µM [inhibitor, single point]. In the case of `O=C(Cn1c(=O)c2c(ncn2Cc2ccccc2)n(Cc2ccccc2)c1=O)N1CCNC1=O`, the “activity change, negative = inhibition” value is reported as inactive: -17.2%. In the case of `O=C(COC(=O)C1CC(O)CN1S(=O)(=O)c1ccc(Cl)cc1)c1cccc(Cl)c1` (stereo unspecified), the Potency is reported as inconclusive: 50.1 µM [inhibitor, partial curve, poor fit]. In the case of `CCOC(=O)c1ccc(-c2c(-c3ccccc3OC)sc3ccc(OC)cc23)cc1F`, the “activity change, negative = inhibition” value is reported as inactive: -13.7%. In the case of `O=C(NC(=S)Nc1cccc([N+](=O)[O-])c1)C1CCCC1`, the Potency is reported as inconclusive: 56.2 µM [inhibitor, partial curve, poor fit]. `Cc1ccccc1C(=O)N1CCCC(c2nn(-c3ccc(Cl)cc3)c(=O)[nH]2)C1` (stereo unspecified) was tested, and the Potency was inconclusive: 50.1 µM [inhibitor, partial curve]. In the case of `COc1ccc(C)cc1Nc1nc(C)nc2sc(C)cc12`, the “activity change, negative = inhibition” value is reported as inactive: 9.53%. `COc1ccc(-n2cc(-c3ccc(OC)c(OC)c3)[nH]c2=S)cc1` was tested, and the Potency was inconclusive: 44.7 µM [inhibitor, partial curve, poor fit]. In the case of `CCCc1nc2ccc(Cl)cn2c1Cc1ccccc1OC`, the Potency is reported as inconclusive: 39.8 µM [inhibitor, partial curve, poor fit].

Reference: PubChem BioAssay AID1671190 (National Center for Advancing Translational Sciences (NCATS), 2021)
% is scaled to controls: 0 for no effect and ±100 for the full control effect; potency is read from the fitted curve at half-maximal effect.
